The list shows a part of the results.
Key:
[1] = molecular target: Neu5Gc(a2-8)Neu5Gc(a2-6)Gal(b1-4)GlcNAc; assay: glycan array binding signal (z-score within array); higher = stronger binding; conditions: glycan notation: IUPAC condensed, linker removed
Outline: (§1)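 The Consortium for Functional Glycomics database supplied 3228 glycan arrays, of which those lacking an available protein sequence were dropped. The binding signal, a within-array Z-score, was averaged across arrays of the same protein sequence and across linkers. Negative scores can be read as non-binding.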

[2] = molecular target: Neu5Gc(b2-6)Gal(b1-4)GlcNAc; assay: as above; conditions: glycan notation: IUPAC condensed, linker removed
Outline: as §1

B1: EUL D1A (Oryza sativa) (protein)
chain: MFGFGHHHNQAPAAPSDPNQIFKIFCRANENYCLTVRDSAVVLAPVNPKDEHQHWFKDMRFSTKVKDGEGMPAFALVNKATGLAVKHSLGQSHPVKLVPFNPEYEDASVLWTESKDVGKGFRCIRMVNNTRLNLDAFHGDKDHGGVRDGTTVVLWEWCKGDNQSWKILPWGPEAHSSSPGAATACTIGGVPVHTVRVFSAAGEDYCLTVRNGTACLAPKNPRDDYQHWIKDMRHSNKIRDEEGYPAFALVNKVTGEAIKHSTGQGHPVKLVPYNPEYQDESVLWTESKDVGKGFRCIRMVNNIYLNFDAFHGDKDHGGIHDGTEIVLWKWCEGDNQRWKILPWILEQKLISEEDLNSAVDHHHHHH
[1]
  glycan array binding signal (z-score): -0.137
[2]
  glycan array binding signal (z-score): -0.093
